Data published in BindingDB's records for doi:10.1124/jpet.105.092155 (Acadia Pharmaceuticals, 2005).
Several values for one entry are separate records, joined by “and”; a condition that tells them apart may be missing. Equal values may be shown once.

Amino acid sequences for entries named in this document (tags omitted). Chains listed by the source or under a name are the forms on record and can include a tag or linker.
UniProt P35462, as listed by the source: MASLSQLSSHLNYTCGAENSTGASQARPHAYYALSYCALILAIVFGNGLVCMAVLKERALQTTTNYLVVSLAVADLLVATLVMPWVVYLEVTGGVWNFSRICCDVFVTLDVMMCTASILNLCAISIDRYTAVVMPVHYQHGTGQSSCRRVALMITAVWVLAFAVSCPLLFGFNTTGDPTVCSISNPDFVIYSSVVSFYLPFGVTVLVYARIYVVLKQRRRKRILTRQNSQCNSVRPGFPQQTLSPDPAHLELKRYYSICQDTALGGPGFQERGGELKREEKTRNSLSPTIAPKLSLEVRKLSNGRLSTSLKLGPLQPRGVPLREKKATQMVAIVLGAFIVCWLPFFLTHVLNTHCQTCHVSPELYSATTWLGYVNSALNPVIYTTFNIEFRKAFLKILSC

Molecular target: D(3) dopamine receptor (Homo sapiens, UniProt P35462)

OCCOCCN1CCN(C2=Nc3ccccc3Sc3ccccc32)CC1 [2-[2-(4-dibenzo[b,f][1,4]thiazepin-11-ylpiperazin-1-yl)ethoxy]ethanol]
Ki: 9.2 nM

CN1CCN(CCCN2c3ccccc3Sc3ccc(Cl)cc32)CC1 [2-chloro-10-[3-(4-methylpiperazin-1-yl)propyl]phenothiazine;ethane-1,2-disulfonic acid]
Ki: 3.4 nM and 2.4 nM
